Taken from: PubChem BioAssay AID1224830 (NIAID, 2016)
Test: 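Host factors that control LPS-induced TNF expression in human macrophages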 (primary screen). System: human THP-1 monocytic leukaemia cells, TNF dual-luciferase reporter clone, PMA-differentiated to macrophage-like cells. Reagents: siRNA pool against human genes, 50 nM. Timing: LPS for 4 h, given about 3 days after siRNA transfection. Conditions: bacterial LPS (TLR4 ligand), 10 ng/ml. Measured: 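Ratio of firefly to renilla light, scaled to the plate median and expressed as a robust z-score per replicate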. Scale: TNF reporter robust z-score: higher = stronger TNF reporter response to LPS. Call rule: 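Each well counts as active if its z-score is over 2.8 or under -1.5; controls are left without a call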.
The deposit covers about 18,000 reagents; shown is a part drawn at random. Of all reagents, about 2,900 (16%) got an active call. 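Calls are made per well; low scores hint the gene aids the LPS response, high scores that it dampens it.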 A number with no mark means an inactive call. Repeated entries: four replicate wells of each siRNA pool.

gene	TNF reporter robust z-score
SPINK14	1.4
SPINK14	1.14
SPINK14	0.55
SPINK14	1.16
EIF3A	-0.99
EIF3A	-1.44
EIF3A	-1.45
EIF3A	-1.48
PCDH19	0.45
PCDH19	1.67
PCDH19	0.02
PCDH19	-1.1
CHGA	-0.85
CHGA	-0.46
CHGA	-0.34
CHGA	0.34
PLIN2	1.18
PLIN2	0.17
PLIN2	0.51
PLIN2	0.71
HSPA4L	0.34
HSPA4L	1.33
HSPA4L	0.7
HSPA4L	1.65
DMAC2L	-0.79
DMAC2L	0.39
DMAC2L	-0.5
DMAC2L	0.35
BTN3A3	1.34
BTN3A3	1.36
BTN3A3	0.06
BTN3A3	1.82
CLIP1	-1.08
CLIP1	-0.95
CLIP1	-1.16
CLIP1	0.08
IRAK4	0.14
IRAK4	-0.61
IRAK4	0.08
IRAK4	1.05
GOLT1A	1.55
GOLT1A	1.45
GOLT1A	0.62
GOLT1A	2.98 (active)
SP140	5.72 (active)
SP140	0.92
SP140	-0.34
SP140	0.55

Part of the list above in another layout:
| gene | TNF reporter robust z-score |
| --- | --- |
| IRAK4 | 0.14 |
| IRAK4 | -0.61 |
| IRAK4 | 0.08 |
